Assay results published in patent US7994159B2, “c-Kit kinase inhibitor” (Eisai R&D Management Co., Ltd., priority 2003, dated 2011).

The chains behind the UniProt entries cited, without tags or fusion partners. Residues count along the entry.
UniProt P10721, 26-976: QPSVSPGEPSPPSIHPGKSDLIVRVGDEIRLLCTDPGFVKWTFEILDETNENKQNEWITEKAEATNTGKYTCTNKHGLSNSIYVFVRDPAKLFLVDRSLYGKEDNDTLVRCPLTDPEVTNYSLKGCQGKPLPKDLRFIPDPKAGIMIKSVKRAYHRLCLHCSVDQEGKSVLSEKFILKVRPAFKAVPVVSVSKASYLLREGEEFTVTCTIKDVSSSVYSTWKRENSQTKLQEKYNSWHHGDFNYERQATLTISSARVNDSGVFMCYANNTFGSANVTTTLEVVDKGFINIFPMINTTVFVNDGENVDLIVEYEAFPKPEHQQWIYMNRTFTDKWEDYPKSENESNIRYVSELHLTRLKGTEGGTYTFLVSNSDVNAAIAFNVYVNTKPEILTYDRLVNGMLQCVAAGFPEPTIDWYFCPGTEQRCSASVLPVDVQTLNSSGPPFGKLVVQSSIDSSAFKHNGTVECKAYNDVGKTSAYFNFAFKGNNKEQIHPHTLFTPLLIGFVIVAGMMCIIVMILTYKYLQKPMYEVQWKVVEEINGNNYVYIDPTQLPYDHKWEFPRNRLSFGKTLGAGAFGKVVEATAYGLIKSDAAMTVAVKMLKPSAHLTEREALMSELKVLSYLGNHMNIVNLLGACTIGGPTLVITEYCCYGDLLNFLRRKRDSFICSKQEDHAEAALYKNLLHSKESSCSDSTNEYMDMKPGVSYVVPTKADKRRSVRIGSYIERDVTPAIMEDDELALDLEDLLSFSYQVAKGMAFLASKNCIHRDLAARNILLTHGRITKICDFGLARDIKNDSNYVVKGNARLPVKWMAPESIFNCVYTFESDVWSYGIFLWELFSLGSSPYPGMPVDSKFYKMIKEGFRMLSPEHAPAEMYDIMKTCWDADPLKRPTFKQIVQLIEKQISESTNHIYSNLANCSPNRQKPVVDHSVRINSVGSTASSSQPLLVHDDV

What was measured:
[1] = test system: small cell lung cancer cell line H-526 expressing c-Kit kinase; experiment: Effect on proliferation of H-526 cells stimulated by SCF (Cell Counting Kit-8); assay type: cell-based; conditions: Homo sapiens, NCI-H526, 7th day after addition of test substance, read-out: IC50, concentration required for 50% inhibition of the cell proliferation stimulated by SCF
Protocol: H-526 cells were cultured in a 5% CO2 incubator (37° C.) using an RPMI1640 medium (Nissui Pharmaceutical Co., Ltd.) containing 10% FCS (purchased from Cell Culture Technologies). After culturing, H-526 cells were washed with PBS three times and were suspended in an RPMI1640 medium containing 0.1% BSA (Sigma Corporation) (hereinafter abbreviated as “BSA-RPMI1640”) at 1.0×10^5 cells/ml. […] On the 7th day after addition of the test substance, 20 μl of Cell Counting Kit-8 (Dojin Laboratories) was added to the well and was cultured in a 5% CO2 incubator (37° C.) for about 2 hours. After color development, the absorbance of each well was determined using a MTP-32 plate reader (Colona Electric Co., Ltd.) at a measuring wavelength of 450 nm and at a reference wavelength of 660 nm. The absorbance of each well was subtracted by the absorbance of the well without addition of SCF, and then the ratio of the absorbance of the well with addition of the test substance to the ratio of the absorbance of the well without addition of the test substance was determined. This ratio was used to calculate the concentration of the test substance required for 50% inhibition of the cell proliferation (IC50).

c-Kit kinase = c-Kit kinase (Homo sapiens, UniProt P10721); experiment: c-Kit kinase phosphorylation by SCF stimulation in H-526 cells (immunoblot, phospho-c-kit Tyr719); assay type: cell-based; set-up: in the small cell lung cancer cell line H-526 expressing c-Kit kinase; host or cells: H-526 small cell lung cancer cells; conditions: FIG. 1
Protocol: H-526 cells were cultured in a 5% CO2 incubator (37° C.) using an RPMI1640 medium containing 10% FCS. After culturing, H-526 cells were washed with PBS three times and were suspended in a BSA-RPMI1640 medium at 5.0×10^5 cells/ml. Each 1 ml of this cell suspension was inoculated to the well of a 24-well plate and the suspension was cultured in a 5% CO2 incubator (37° C.) for 6 hours. After 6-hours culturing, 1 ml of BSA-RPMI1640 containing a diluted test substance was added to each well and culturing was carried out in a 5% CO2 incubator (37° C.) for 1 hour. […] After 5-minutes culturing, the cells were washed with PBS and 100 μl of SDS sample loading buffer was added to the cells to prepare a cell lysate sample. After the sample was heat-treated at 94° C. for 10 minutes, it was cryopreserved at -20° C. […] After electrophoresis, the sample was transferred to a PVDF membrane (Amersham Pharmacia Biotech Inc.) for 3 hours. The transferred membrane was subjected to immunoblot using a phospho-c-kit ([…]) antibody (Cell Signaling Technology Inc.) as a primary antibody and an anti-rabbit IgG, HRP-linked antibody (Cell Signaling Technology Inc.) as a secondary antibody. After the membrane was washed, it was developed with a Super Signal (Pierce Biotechnology, Inc.).

IC50 [1]: 190 nM | phosphorylation inhibitory activity relative to that of Compound 1 (c-Kit kinase): approximately one tenth
SMILES: Cc1ccc(NC(=O)c2ccc(CN3CCN(C)CC3)cc2)cc1Nc1nccc(-c2cccnc2)n1 [STI571, reference compound]
